In PubChem BioAssay AID493014 (National Center for Advancing Translational Sciences (NCATS), 2011):
The list shows a part of the results. Shown are side measurements of this screen, not its main read-out; they come without a call. The list favours compounds with an active or inconclusive main result. Words in brackets tell the shape of the fitted curve; partial curves, single points and poor fits give uncertain potencies.

Assay: qHTS Assay to Find Inhibitors of Chronic Active B-Cell Receptor Signaling
Settings: ABC-DLBCL IkBa-CBG/CBR reporter, luminescence ratio (green luciferase fused to IkBa over red control in TMD8 lymphoma cells), 4 h
Method in brief: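 TMD8 human ABC-DLBCL cells with doxycycline-inducible IκBα–green luciferase fusion and unfused red luciferase, in 0.5% FBS medium; compounds up to 46 uM, 4 h at 37C. Green/red luminescence ratio, filter-overlap corrected, fitted to concentration-response curves.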

[1] = measured here: CBR red luminescence, cell number
[2] = measured here: IkBa-CBG green luminescence

SMILES	AC50 [1]	AC50 [2]
Cc1ccc(OS(=O)Nc2cccc3nccnc23)cc1 (stereo not drawn)	35.5 µM [rising, single point]	
N#C/C(C(=O)N1CCOCC1)=C1/SC(Cc2ccccc2)C(=O)N1c1ccccc1 (stereo not drawn)	35.5 µM [falling, single point]	
COc1ccccc1Nc1ccncc1[N+](=O)[O-]	35.5 µM [rising, single point]	
Cc1ccccc1N(CC(=O)Nc1ccccc1C(=O)NCc1ccco1)S(=O)(=O)c1ccccc1	0.461 µM [falling, single point]	
CC(=O)Nc1sc(C)c(C)c1C(=O)OC(C)C	20.6 µM [rising, partial curve, poor fit]	
COc1ccc2nc(NC(=O)CCNC(=O)c3ccccc3Cl)sc2c1	12.6 µM [falling, single point]	
Cc1cc2c(cc1C)/C(=N/NC(=O)c1ccccn1)CCC2	15.8 µM [falling, partial curve, poor fit]	
Cc1ccc(NC(=O)C2Cc3ccccc3CN2C(=O)c2ccccc2)cc1Cl (stereo not drawn)	16.4 µM [falling, partial curve]	
CSc1ccc(S(=O)(=O)Nc2c(C)cccc2C)cc1	20.6 µM [rising, partial curve, poor fit]	
O=c1c(-c2ccc3c(c2)OCCO3)coc2cc(OC3OC(CO)C(O)C(O)C3O)ccc12 (stereo not drawn)	15.8 µM [falling, partial curve, poor fit]	
CSCCNC(=O)c1cccc(Cl)c1	17.8 µM [rising, partial curve, poor fit]	
CC(C)Cn1cnc2c(c1=N)C(c1ccccc1)C1=C(CC(C)(C)CC1=O)O2 (stereo not drawn)	15.8 µM [falling, partial curve, poor fit]	12.6 µM [rising, single point]
Cc1cc(NC(=O)Cn2cnc3sc(C)c(-c4ccccc4)c3c2=O)no1	11.6 µM [falling, partial curve, poor fit]	
C=CCn1c(SCC(=O)Nc2nc(C)cs2)nnc1C(CO)NC(=O)c1ccccc1 (stereo not drawn)	1.16 µM [falling, full curve, poor fit]	
COc1ccc(C2Nc3ccccc3C(=O)N2c2ccccc2)cc1Cn1cc([N+](=O)[O-])cn1 (stereo not drawn)	25.9 µM [falling, partial curve, poor fit]	
COc1cc(OC)cc(C(=O)NC(=S)Nc2ccc(N3CCCC3)cc2)c1	8.2 µM [falling, partial curve]	
O=C(N/N=C/c1ccc[nH]1)c1cc2ccccc2cc1O	0.316 µM [falling, full curve, poor fit]	
CC(C)(C)c1ccc(C(CC(=O)O)NC(=O)Cc2ccccc2)cc1 (stereo not drawn)	15.8 µM [rising, single point]	
O=c1ccc2c(o1)/C(=C/C=C(Cl)Cl)CCC2	35.5 µM [falling, single point]	
Cc1ccc(S(=O)(=O)/N=C2\C(=O)c3ccccc3C([O-])=C2n2cc[n+](CCC(C)C)c2)cc1	14.1 µM [rising, partial curve, poor fit]	
CCCCOC(=O)Nc1cc(C)c(Cl)cc1OC	23.1 µM [rising, single point]	

Nothing new here: 2 of the compounds above.
SMILES	AC50 [1]	AC50 [2]
N#C/C(C(=O)N1CCOCC1)=C1/SC(Cc2ccccc2)C(=O)N1c1ccccc1 (stereo not drawn)	35.5 µM [falling, single point]	
COc1ccccc1Nc1ccncc1[N+](=O)[O-]	35.5 µM [rising, single point]	

Next structures follow:

SMILES	AC50 [1]	AC50 [2]
Cc1nn(C)c(C(=O)Nc2ccc(Br)cc2F)c1Br	29.1 µM [rising, single point]	
CC(C)CCNC(=O)Cn1c(=O)oc2cc(S(=O)(=O)N3CCc4ccccc43)ccc21	17.8 µM [falling, single point]	
N#C/C(=C\c1cccc([N+](=O)[O-])c1)c1nnc2n1CCCCC2	10.3 µM [falling, partial curve]	
N#Cc1c(-c2ccc(F)cc2)noc1N	16.4 µM [falling, single point]	
O=S(=O)(c1cccc2nonc12)N1CCN(c2ccc(F)cc2)CC1	15.8 µM [rising, single point]	
CCOc1cc(S(=O)(=O)n2ccnc2C(C)C)ccc1Cl	11.2 µM [rising, partial curve, poor fit]	
Cc1nnc2sc(-c3cccc4ccccc34)nn12	12.6 µM [rising, single point]	
Cc1cc(C)cc(OCC(=O)Nc2cccc(C(=O)O)c2)c1	2.31 µM [falling, partial curve]	
CCc1cc2c(=O)c(-c3nc4ccccc4[nH]3)coc2c(CN2CCCCC2)c1O	3.98 µM [falling, partial curve, poor fit]	
COc1ccc(CC(=O)Nc2ccc3c(c2)CCC3)cc1OC	29.1 µM [falling, single point]	
COc1ccc(C(C(=O)NC2CCCCC2)N(C(=O)CCl)c2cccc(Cl)c2)cc1 (stereo not drawn)	3.66 µM [falling, full curve, poor fit]	
Cc1ccc(C(=O)C[n+]2ccc3ccccc3c2)cc1	2.51 µM [rising, full curve, poor fit]	
O=C(Nc1cccc(O)c1)c1cccc(C(=O)Nc2cccc(O)c2)c1	35.5 µM [falling, single point]	
O=C1C=CC(O)(c2cc(=O)c3c(O)cc(O)cc3o2)C=C1	5.8 µM [falling, full curve]	
O=C(CSc1nnnn1Cc1ccccc1)NCCc1ccccc1	20.6 µM [rising, single point]	6.51 µM [falling, partial curve, poor fit]
CCCCN([C@H](CO)C(C)C)S(=O)(=O)c1ccccc1Br	29.1 µM [rising, single point]	
Cc1cc(C)c(NC(=S)N(CCN(C)C)Cc2cccs2)c(C)c1	4.47 µM [falling, partial curve, poor fit]	
CCc1c(C)n([O-])c2c([n+]1=O)CCC2	1.46 µM [falling, partial curve, poor fit]	
Cc1cc(C(=O)N/N=C/c2ccc(C)s2)n[nH]1	20 µM [falling, single point]	
CC(=O)Nc1ccc(C(=O)CSc2nc3ccccc3n2CC(=O)N2CCCC2)cc1	7.08 µM [rising, full curve, poor fit]	
